Results as given in the supplement of paper PMC10849652.
The other results are listed elsewhere or left out. Residues, ends and D or L forms follow the SMILES beside them. *: point of attachment. Cbz = O=C(OCc1ccccc1)*

The chains behind the UniProt entries cited, without tags or fusion partners. Where a name states a change or a piece, a line headed by the entry shows the natural chain unless it says otherwise.
UniProt Q04206, whole entry, looked up: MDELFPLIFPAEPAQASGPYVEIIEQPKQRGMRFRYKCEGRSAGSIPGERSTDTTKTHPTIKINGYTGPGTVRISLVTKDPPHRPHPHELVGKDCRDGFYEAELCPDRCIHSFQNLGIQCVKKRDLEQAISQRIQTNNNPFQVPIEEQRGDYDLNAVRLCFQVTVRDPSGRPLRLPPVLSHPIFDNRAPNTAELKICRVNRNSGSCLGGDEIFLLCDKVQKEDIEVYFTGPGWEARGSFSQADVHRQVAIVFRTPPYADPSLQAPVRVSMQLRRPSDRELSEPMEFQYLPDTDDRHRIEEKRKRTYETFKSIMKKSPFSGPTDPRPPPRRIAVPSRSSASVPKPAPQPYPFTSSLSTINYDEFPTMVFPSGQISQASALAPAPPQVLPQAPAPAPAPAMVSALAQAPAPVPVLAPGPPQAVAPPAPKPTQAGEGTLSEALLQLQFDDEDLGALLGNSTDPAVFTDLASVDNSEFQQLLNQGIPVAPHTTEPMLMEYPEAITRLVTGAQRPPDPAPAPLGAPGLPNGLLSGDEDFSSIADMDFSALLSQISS
UniProt Q8IZV5: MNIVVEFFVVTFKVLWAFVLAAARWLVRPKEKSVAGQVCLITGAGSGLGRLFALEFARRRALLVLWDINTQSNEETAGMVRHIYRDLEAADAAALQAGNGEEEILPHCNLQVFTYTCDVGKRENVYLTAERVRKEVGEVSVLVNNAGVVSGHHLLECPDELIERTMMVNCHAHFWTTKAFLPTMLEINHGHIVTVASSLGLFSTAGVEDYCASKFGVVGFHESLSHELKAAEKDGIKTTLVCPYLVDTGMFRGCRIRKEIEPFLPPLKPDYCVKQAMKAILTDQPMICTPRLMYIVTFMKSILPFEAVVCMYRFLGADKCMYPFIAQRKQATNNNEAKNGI
UniProt Q9ULI2: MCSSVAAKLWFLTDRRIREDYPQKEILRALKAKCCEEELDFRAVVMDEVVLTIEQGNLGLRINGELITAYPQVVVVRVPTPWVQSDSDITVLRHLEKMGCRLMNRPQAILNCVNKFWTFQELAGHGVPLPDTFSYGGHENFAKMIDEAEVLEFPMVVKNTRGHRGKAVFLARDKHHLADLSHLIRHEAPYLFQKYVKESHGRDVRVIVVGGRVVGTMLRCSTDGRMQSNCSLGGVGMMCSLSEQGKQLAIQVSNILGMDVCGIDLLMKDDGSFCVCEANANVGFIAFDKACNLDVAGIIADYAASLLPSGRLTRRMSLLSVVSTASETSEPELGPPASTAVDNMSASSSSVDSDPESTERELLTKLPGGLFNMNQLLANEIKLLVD
UniProt Q9UBS8: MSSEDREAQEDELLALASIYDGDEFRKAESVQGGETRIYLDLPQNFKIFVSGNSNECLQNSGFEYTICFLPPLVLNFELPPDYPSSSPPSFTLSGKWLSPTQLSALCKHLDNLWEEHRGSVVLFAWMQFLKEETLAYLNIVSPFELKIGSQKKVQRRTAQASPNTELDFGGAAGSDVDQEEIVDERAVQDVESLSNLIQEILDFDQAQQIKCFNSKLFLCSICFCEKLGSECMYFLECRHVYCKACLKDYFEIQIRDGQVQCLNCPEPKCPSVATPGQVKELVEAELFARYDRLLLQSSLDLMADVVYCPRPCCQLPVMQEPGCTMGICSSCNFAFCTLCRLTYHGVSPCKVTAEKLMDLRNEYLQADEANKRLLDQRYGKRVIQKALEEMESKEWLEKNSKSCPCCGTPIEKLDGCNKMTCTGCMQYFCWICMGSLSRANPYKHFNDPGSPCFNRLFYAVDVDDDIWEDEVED
UniProt Q9BVS4: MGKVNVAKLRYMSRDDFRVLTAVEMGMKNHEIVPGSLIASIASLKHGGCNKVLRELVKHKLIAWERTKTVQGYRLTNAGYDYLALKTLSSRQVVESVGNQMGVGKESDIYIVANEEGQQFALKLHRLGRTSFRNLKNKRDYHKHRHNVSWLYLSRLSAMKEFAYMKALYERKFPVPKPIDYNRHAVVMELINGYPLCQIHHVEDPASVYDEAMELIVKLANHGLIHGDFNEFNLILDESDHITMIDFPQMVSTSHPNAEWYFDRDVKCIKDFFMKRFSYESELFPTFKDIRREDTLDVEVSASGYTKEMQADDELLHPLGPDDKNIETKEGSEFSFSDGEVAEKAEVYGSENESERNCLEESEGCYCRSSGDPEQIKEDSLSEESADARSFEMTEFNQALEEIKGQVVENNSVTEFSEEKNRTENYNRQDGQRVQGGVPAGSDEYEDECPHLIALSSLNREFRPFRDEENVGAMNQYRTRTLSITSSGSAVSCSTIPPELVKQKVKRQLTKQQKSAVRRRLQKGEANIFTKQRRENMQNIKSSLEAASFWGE
UniProt Q8TC12: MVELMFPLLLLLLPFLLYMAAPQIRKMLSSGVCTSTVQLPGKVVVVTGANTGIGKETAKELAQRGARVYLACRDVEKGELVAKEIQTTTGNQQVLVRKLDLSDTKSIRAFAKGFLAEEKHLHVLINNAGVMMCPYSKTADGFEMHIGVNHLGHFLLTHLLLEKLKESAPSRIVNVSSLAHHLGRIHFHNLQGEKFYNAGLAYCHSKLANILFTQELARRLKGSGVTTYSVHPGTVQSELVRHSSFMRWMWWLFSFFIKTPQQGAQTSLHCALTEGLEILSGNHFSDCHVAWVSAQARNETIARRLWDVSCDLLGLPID
UniProt A6NEQ0: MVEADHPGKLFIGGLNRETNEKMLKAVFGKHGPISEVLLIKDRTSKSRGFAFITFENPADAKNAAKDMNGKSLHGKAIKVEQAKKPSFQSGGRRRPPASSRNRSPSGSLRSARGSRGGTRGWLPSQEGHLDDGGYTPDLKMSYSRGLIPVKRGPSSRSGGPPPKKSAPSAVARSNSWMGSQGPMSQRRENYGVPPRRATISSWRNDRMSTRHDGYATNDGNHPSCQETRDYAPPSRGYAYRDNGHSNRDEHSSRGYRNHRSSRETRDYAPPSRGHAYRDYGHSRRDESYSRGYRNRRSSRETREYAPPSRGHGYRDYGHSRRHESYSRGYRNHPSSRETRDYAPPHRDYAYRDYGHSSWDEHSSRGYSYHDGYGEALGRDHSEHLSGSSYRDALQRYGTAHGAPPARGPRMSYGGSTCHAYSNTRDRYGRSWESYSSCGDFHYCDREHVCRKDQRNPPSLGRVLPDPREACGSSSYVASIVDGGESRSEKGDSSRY
UniProt Q9H1K0: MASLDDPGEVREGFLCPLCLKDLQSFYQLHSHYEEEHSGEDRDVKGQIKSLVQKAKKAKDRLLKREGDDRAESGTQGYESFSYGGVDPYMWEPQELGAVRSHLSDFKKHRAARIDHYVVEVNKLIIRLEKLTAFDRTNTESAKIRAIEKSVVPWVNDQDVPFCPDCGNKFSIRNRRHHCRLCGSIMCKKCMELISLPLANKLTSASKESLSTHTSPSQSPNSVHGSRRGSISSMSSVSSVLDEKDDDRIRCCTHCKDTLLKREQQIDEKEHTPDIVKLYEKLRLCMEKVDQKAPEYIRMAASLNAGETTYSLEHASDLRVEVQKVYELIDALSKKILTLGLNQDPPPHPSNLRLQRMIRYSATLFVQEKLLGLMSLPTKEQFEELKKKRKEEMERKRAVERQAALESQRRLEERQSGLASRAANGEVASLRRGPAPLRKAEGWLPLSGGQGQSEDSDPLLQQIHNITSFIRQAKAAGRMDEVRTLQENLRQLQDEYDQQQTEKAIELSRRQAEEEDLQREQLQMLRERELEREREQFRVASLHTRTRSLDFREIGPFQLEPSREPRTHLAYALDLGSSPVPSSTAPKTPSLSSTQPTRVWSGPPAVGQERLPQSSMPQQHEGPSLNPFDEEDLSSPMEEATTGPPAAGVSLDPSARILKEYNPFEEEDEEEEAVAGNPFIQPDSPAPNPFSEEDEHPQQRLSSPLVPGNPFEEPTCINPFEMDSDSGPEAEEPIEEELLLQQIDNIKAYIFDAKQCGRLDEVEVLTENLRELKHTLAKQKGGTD
UniProt Q96K19: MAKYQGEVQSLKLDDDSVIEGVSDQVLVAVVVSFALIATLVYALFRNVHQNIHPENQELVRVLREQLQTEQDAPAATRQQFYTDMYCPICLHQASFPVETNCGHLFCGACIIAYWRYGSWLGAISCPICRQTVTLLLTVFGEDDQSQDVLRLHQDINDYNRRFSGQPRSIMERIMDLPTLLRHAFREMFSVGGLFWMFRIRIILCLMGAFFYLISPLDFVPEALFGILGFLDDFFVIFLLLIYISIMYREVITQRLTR
UniProt Q6NTF9: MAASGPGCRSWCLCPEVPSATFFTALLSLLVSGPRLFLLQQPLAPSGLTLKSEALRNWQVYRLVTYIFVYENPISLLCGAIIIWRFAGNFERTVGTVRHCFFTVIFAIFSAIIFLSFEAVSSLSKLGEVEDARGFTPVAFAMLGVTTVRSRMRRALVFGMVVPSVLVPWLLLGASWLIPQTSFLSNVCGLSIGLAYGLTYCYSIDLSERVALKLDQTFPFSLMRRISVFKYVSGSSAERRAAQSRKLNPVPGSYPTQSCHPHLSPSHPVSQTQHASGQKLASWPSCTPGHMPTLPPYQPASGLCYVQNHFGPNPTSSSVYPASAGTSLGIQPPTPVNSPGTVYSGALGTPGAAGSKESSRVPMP
UniProt Q9NTX7: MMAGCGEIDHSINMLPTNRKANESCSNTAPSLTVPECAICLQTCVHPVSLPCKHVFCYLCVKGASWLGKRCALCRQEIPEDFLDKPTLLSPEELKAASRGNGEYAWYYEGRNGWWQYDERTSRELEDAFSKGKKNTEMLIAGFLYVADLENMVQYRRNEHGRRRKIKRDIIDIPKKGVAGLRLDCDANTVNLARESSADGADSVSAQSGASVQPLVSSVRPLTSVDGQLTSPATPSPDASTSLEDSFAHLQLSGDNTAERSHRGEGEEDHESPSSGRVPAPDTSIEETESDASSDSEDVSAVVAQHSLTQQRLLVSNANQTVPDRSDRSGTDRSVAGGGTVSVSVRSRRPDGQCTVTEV
UniProt Q96DM3: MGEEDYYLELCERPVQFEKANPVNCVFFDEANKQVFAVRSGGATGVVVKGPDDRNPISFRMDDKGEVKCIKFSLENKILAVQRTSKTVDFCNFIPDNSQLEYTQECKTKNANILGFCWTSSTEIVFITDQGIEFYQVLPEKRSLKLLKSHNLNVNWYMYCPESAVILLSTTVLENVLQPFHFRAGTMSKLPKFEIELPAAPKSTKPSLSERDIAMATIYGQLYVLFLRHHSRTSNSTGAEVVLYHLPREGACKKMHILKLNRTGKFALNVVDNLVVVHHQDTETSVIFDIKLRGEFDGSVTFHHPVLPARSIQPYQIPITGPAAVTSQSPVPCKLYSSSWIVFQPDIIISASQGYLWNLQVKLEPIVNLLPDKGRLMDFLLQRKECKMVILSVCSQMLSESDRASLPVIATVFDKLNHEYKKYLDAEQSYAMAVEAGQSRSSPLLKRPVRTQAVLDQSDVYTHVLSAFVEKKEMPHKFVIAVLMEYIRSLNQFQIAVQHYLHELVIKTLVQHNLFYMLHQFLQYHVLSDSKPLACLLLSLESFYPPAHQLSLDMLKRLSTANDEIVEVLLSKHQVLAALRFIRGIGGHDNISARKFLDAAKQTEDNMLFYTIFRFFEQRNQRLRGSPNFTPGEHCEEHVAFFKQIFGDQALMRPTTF
UniProt Q15493: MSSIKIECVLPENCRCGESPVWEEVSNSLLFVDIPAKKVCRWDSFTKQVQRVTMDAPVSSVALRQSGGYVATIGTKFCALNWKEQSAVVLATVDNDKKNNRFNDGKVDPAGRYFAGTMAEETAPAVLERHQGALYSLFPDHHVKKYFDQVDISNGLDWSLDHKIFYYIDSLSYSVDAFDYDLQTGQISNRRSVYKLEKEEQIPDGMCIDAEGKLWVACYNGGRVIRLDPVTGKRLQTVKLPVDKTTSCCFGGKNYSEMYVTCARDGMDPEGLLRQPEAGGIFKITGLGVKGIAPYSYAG
UniProt Q9NVW2: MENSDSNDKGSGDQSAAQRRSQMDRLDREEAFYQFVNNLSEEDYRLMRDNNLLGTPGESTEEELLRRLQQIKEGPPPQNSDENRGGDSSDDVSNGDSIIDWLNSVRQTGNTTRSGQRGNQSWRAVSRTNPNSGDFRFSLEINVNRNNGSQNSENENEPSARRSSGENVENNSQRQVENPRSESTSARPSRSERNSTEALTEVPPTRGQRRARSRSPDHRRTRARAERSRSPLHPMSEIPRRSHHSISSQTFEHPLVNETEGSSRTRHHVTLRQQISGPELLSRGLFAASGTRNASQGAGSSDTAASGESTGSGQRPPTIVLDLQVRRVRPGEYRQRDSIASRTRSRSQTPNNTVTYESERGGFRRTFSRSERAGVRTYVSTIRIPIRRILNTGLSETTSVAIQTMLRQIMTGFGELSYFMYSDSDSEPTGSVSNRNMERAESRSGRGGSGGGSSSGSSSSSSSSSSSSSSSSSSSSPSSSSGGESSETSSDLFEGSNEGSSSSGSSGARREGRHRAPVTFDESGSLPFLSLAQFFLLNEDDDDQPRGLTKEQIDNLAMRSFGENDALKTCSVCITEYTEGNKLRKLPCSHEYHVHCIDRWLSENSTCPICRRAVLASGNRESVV

How the values were obtained:
Experiment in all cases: log2 fold change, soluble protein after heating vs DMSO (PISA); higher = thermal stabilisation; K562 cells, 10 uM, 30 min; active = over 0.2 and 3.5 SD of the protein, either way, in both replicates (recomputed)
IRAK-1-4 Inhibitor I = compound: C1COCCN1CCN2C3=CC=CC=C3N=C2NC(=O)C4=CC(=CC=C4)[N+](=O)[O-] [IRAK-1-4 Inhibitor I]
Method in brief: (§1)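 K562 cells at 2×10^6 cells/mL were treated for 30 min with 10 μM compound, and aliquots were heated for 3 min over 48°C-58°C before pooling. Extraction used PBS with 0.5% NP-40 at 4°C, and soluble protein was the supernatant after 21,000xg for 90 min, measured by TMTpro 16plex LC-MS/MS with channel sums equalised. Thermal stability values, relative to control samples and from duplicates, are log2 fold changes.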

ibrutinib = compound: C=CC(=O)N1CCC[C@@H](n2nc(-c3ccc(Oc4ccccc4)cc3)c3c(N)ncnc32)C1 [ibrutinib]
Method in brief: as §1

[1] = compound: CC(=O)c1cnc2ccc(-c3cc(Cl)c(O)c(Cl)c3)nc2c1N[C@H]1CC[C@H](CN(C)C)CC1
Method in brief: as §1

ralimetinib = compound: CC(C)(C)Cn1c(N)nc2ccc(-c3[nH]c(C(C)(C)C)nc3-c3ccc(F)cc3)nc21 [ralimetinib]
Method in brief: as §1

[2] = compound: CC(C)(O)CC(=O)NCCn1ccc2ncnc(Nc3ccc(Oc4cccc(C(F)(F)F)c4)c(Cl)c3)c21
Method in brief: as §1

[3] = compound: CC(C)C1=C2N=C(C=C(N2N=C1)NCC3=CC=CC=C3)NCCCCCCN
Method in brief: as §1

[4] = compound: CC(C)C[C@@H](C=O)NC(=O)[C@H](CC(C)C)NC(=O)[C@H](CC(C)C)NC(=O)OCc1ccccc1
Method in brief: as §1

pinometostat = compound: CC(C)N(C[C@H]1O[C@@H](n2cnc3c(N)ncnc32)[C@H](O)[C@@H]1O)[C@H]1C[C@@H](CCc2nc3cc(C(C)(C)C)ccc3[nH]2)C1 [pinometostat]
Method in brief: as §1

[5] = compound: CC1=C(C2=C(C=C1)C(=O)C3=CC=CC=C3N2CCCN)C
Method in brief: as §1

[6] = compound: CC1=C(C=C(C=C1)NC(=O)C2=CC(=CC=C2)C(C)(C)C#N)NC3=CC4=C(C=C3)N=CN(C4=O)C
Method in brief: as §1

[7] = compound: CC1=C(C=C(C=C1)NC(=O)C2=CC(=CC=C2)N(C)C)NC(=O)C3=CC=C(C=C3)O
Method in brief: as §1

[8] = compound: CC1=CC=C(C=C1)SC2=C3C=C(SC3=CN=C2)C(=O)N
Method in brief: as §1

[9] = compound: CC1=NC(=CC=C1)C2=C(N=C(N2)C(C)(C)C)C3=CC4=NC=CN=C4C=C3
Method in brief: as §1

Nexturastat A = compound: CCCCN(Cc1ccc(C(=O)NO)cc1)C(=O)Nc1ccccc1 [Nexturastat A]
Method in brief: as §1

vemurafenib = compound: CCCS(=O)(=O)Nc1ccc(F)c(C(=O)c2c[nH]c3ncc(-c4ccc(Cl)cc4)cc23)c1F [vemurafenib]
Method in brief: as §1

[10] = compound: CCCS(=O)(=O)Nc1ccc(F)c(C(=O)c2c[nH]c3ncc(Cl)cc23)c1F
Method in brief: as §1

[11] = compound: CCCc1cc(C)[nH]c(=O)c1CNC(=O)c1cc(-c2ccnc(N3CCN(C)CC3)c2)cc2c1cnn2C(C)C
Method in brief: as §1

givinostat = compound: CCN(CC)Cc1ccc2cc(COC(=O)Nc3ccc(C(=O)NO)cc3)ccc2c1 [givinostat]
Method in brief: as §1

barasertib = compound: CCN(CCCOc1ccc2c(Nc3cc(CC(=O)Nc4cccc(F)c4)[nH]n3)ncnc2c1)CCOP(=O)(O)O [barasertib]
Method in brief: as §1

[12] = compound: CC1=C(C(CC(=O)N1)C2=CC=C(C=C2)C(F)(F)F)C(=O)NC3=C(C=C4C(=C3)C=NN4)F
Method in brief: as §1

| Target | log2 fold change (IRAK-1-4 Inhibitor I) | log2 fold change (ibrutinib) | log2 fold change [1] | log2 fold change (ralimetinib) | log2 fold change [2] | log2 fold change [3] | log2 fold change [4] | log2 fold change (pinometostat) | log2 fold change [5] | log2 fold change [6] | log2 fold change [7] | log2 fold change [8] | log2 fold change [9] | log2 fold change (Nexturastat A) | log2 fold change (vemurafenib) | log2 fold change [10] | log2 fold change [11] | log2 fold change (givinostat) | log2 fold change (barasertib) | log2 fold change [12] |
| --- | --- | --- | --- | --- | --- | --- | --- | --- | --- | --- | --- | --- | --- | --- | --- | --- | --- | --- | --- | --- |
| RELA (UniProt Q04206) | inactive: -0.011 | inactive: -0.002 | inactive: 0.022 | inactive: 0.025 | inactive: 0 | inactive: -0.018 | inactive: 0.031 | inactive: 0.003 | inactive: -0.054 | inactive: 0.013 | inactive: 0 | inactive: 0.016 | inactive: 0.014 | inactive: 0.028 | inactive: 0.014 | inactive: 0.067 | inactive: 0.021 | inactive: 0.015 | inactive: 0.013 |  |
| RDH10 (UniProt Q8IZV5) | inactive: 0.076 | inactive: 0.159 | inactive: -0.07 | inactive: 0.008 | inactive: 0.075 | inactive: 0.069 | inactive: -0.043 | inactive: -0.018 | inactive: 0.007 | inactive: 0.004 | inactive: -0.034 | inactive: 0.047 | inactive: -0.055 | inactive: -0.107 | inactive: -0.016 | inactive: -0.058 | inactive: -0.043 | inactive: -0.091 | inactive: 0.011 |  |
| RIMKLB (UniProt Q9ULI2) | inactive: 0.033 | inactive: -0.164 |  |  | inactive: 0.259 | inactive: -0.038 |  | inactive: -0.019 |  | inactive: 0.077 |  | inactive: 0.012 | inactive: 0.12 | inactive: -0.179 |  | inactive: -0.032 | inactive: -0.071 | inactive: -0.022 | inactive: 0.068 | inactive: -0.005 |
| RNF14 (UniProt Q9UBS8) | inactive: 0.019 | inactive: 0.006 | inactive: 0.011 | inactive: -0.008 | inactive: -0.035 | inactive: -0.039 | inactive: 0.014 | inactive: -0.075 | inactive: -0.05 | inactive: 0.039 | inactive: -0.034 | inactive: 0.004 | inactive: 0.05 | inactive: -0.04 | inactive: 0.026 | inactive: 0.04 | inactive: 0.029 | inactive: -0.07 | inactive: 0.036 |  |
| RIOK2 (UniProt Q9BVS4) | inactive: -0.061 | inactive: 0.013 | active: 0.465 | inactive: 0.119 | inactive: 0 | inactive: -0.014 | inactive: 0.084 | inactive: 0.132 | inactive: -0.068 | inactive: 0.035 | inactive: 0.006 | inactive: -0.046 | inactive: -0.021 | inactive: 0.178 | inactive: -0.001 | inactive: -0.007 | inactive: 0.056 | inactive: 0.035 | inactive: 0 |  |
| RERE (UniProt Q9P2R6) | inactive: -0.023 | inactive: -0.003 |  | inactive: -0.033 | inactive: 0.013 | inactive: 0.099 | inactive: 0.169 | inactive: 0.099 |  | inactive: -0.064 | inactive: -0.083 |  | inactive: 0 | inactive: 0.039 |  |  | inactive: 0.123 | inactive: 0.133 | inactive: 0.145 | inactive: -0.018 |
| RDH11 (UniProt Q8TC12) | inactive: 0.032 | inactive: 0.067 | inactive: -0.145 | inactive: 0.059 | inactive: -0.126 | active: -0.74 | inactive: 0.117 | inactive: 0.013 | inactive: 0.103 | inactive: 0.068 | inactive: -0.054 | inactive: 0.019 | inactive: -0.016 | inactive: 0.011 | inactive: 0.042 | inactive: 0.035 | inactive: 0.007 | inactive: 0.066 | inactive: 0.057 |  |
| RBMY1E (UniProt A6NEQ0) | inactive: 0.019 | inactive: -0.024 |  | inactive: 0.131 |  | inactive: 0.134 | inactive: 0.141 | inactive: -0.032 | inactive: -0.01 |  | inactive: 0.009 | inactive: 0.183 | inactive: 0.075 |  |  | inactive: 0.082 | inactive: -0.023 | inactive: 0.059 | inactive: 0.135 |  |
| RBSN (UniProt Q9H1K0) | inactive: 0.027 | inactive: -0.334 | inactive: 0.15 | inactive: -0.006 |  | inactive: -0.249 | inactive: -0.065 | inactive: 0.073 | inactive: 0.016 | inactive: 0.087 | inactive: -0.022 | inactive: 0.124 | inactive: 0.103 |  | inactive: -0.055 | inactive: 0.261 |  | inactive: -0.007 | inactive: 0.051 | inactive: -0.08 |
| RETREG2 (UniProt Q8NC44) | inactive: 0.063 | inactive: 0.069 | inactive: 0.048 | inactive: 0.002 |  | inactive: -0.096 | inactive: -0.005 | inactive: 0.065 | inactive: 0.04 | inactive: 0.086 | inactive: -0.018 | inactive: 0.019 | inactive: -0.025 |  | inactive: 0.081 | inactive: 0.087 | inactive: -0.06 | inactive: 0.024 | inactive: 0.011 | inactive: -0.029 |
| RNF170 (UniProt Q96K19) | inactive: -0.061 | inactive: -0.004 | inactive: -0.15 | inactive: -0.016 | inactive: -0.111 |  | inactive: 0.033 | inactive: 0.096 |  |  | inactive: -0.036 | inactive: -0.02 | inactive: 0.176 | inactive: -0.064 | inactive: 0.094 | inactive: -0.106 | inactive: 0.047 |  | inactive: 0 | inactive: -0.081 |
| RHBDD2 isoform 2 (UniProt Q6NTF9) | inactive: 0.007 | inactive: -0.062 | inactive: 0.006 |  | inactive: -0.354 | inactive: -0.113 |  | inactive: -0.037 |  |  |  |  | inactive: 0.202 | inactive: 0.044 |  |  | inactive: -0.079 | inactive: -0.027 | inactive: 0.002 | inactive: -0.16 |
| RNF146 (UniProt Q9NTX7) | inactive: 0.087 | inactive: -0.012 | inactive: 0.018 | inactive: -0.048 | inactive: -0.18 | inactive: -0.025 | inactive: 0.031 | inactive: 0.062 | inactive: 0.004 | inactive: -0.103 | inactive: 0.001 | inactive: 0.027 | inactive: -0.083 | inactive: -0.005 | inactive: -0.09 | inactive: -0.063 |  | inactive: -0.012 | inactive: 0.001 |  |
| RNF167 (UniProt Q9H6Y7) | inactive: -0.001 | inactive: 0.015 | inactive: 0.039 | inactive: -0.018 | inactive: -0.025 | inactive: -0.047 | inactive: -0.009 | inactive: 0.015 | inactive: 0 | inactive: 0.037 | inactive: 0.008 | inactive: -0.041 | inactive: 0.037 | inactive: -0.059 | inactive: 0.031 | inactive: -0.06 | inactive: -0.096 | inactive: 0.005 | inactive: 0.018 |  |
| RMC1 (UniProt Q96DM3) | inactive: 0.038 | inactive: 0.03 | inactive: -0.026 | inactive: -0.025 | inactive: -0.002 | inactive: -0.209 | inactive: 0.011 | inactive: -0.015 | inactive: 0.039 | inactive: 0.037 | inactive: 0.001 | inactive: -0.051 | inactive: 0.024 | inactive: -0.031 | inactive: 0.061 | inactive: 0.031 | inactive: 0.021 | inactive: -0.013 | inactive: 0.039 |  |
| RBP4 (UniProt P02753) | inactive: 0.042 | inactive: -0.101 | inactive: 0.134 | inactive: 0.011 |  | inactive: 0.125 | inactive: 0.077 | inactive: 0.16 | inactive: -0.491 |  | inactive: 0.422 |  | inactive: 0.077 |  | inactive: 0.012 |  | inactive: -0.385 | inactive: 0.004 | inactive: -0.029 |  |
| RGN (UniProt Q15493) |  |  | inactive: 0.047 |  |  |  |  |  | inactive: -0.121 | inactive: 0.049 |  | inactive: 0.17 |  |  | inactive: -0.072 | inactive: -0.168 |  |  |  | inactive: -0.064 |
| RCE1 (UniProt Q9Y256) |  | inactive: -0.015 | inactive: 0.041 | inactive: -0.041 | inactive: -0.129 | inactive: -0.254 | inactive: 0.045 |  | inactive: 0.007 | inactive: 0.053 | inactive: 0.005 | inactive: 0.02 |  | inactive: -0.272 | inactive: -0.135 | inactive: 0.012 | inactive: -0.016 | inactive: -0.007 | inactive: -0.068 | inactive: -0.068 |
| RLIM (UniProt Q9NVW2) |  |  | inactive: 0.13 | inactive: 0.215 |  |  | inactive: -0.024 |  | inactive: 0.067 | inactive: 0.1 | inactive: 0 | inactive: -0.024 |  |  | inactive: -0.066 | inactive: -0.183 |  |  |  |  |

An excerpt of these results, with tabs.
Target	log2 fold change (IRAK-1-4 Inhibitor I)	log2 fold change (ibrutinib)	log2 fold change [1]	log2 fold change (ralimetinib)	log2 fold change [2]	log2 fold change [3]	log2 fold change [4]	log2 fold change (pinometostat)	log2 fold change [5]	log2 fold change [6]	log2 fold change [7]	log2 fold change [8]	log2 fold change [9]	log2 fold change (Nexturastat A)	log2 fold change (vemurafenib)	log2 fold change [10]	log2 fold change [11]	log2 fold change (givinostat)	log2 fold change (barasertib)	log2 fold change [12]
RDH10 (UniProt Q8IZV5)	inactive: 0.076	inactive: 0.159	inactive: -0.07	inactive: 0.008	inactive: 0.075	inactive: 0.069	inactive: -0.043	inactive: -0.018	inactive: 0.007	inactive: 0.004	inactive: -0.034	inactive: 0.047	inactive: -0.055	inactive: -0.107	inactive: -0.016	inactive: -0.058	inactive: -0.043	inactive: -0.091	inactive: 0.011	
RCE1 (UniProt Q9Y256)		inactive: -0.015	inactive: 0.041	inactive: -0.041	inactive: -0.129	inactive: -0.254	inactive: 0.045		inactive: 0.007	inactive: 0.053	inactive: 0.005	inactive: 0.02		inactive: -0.272	inactive: -0.135	inactive: 0.012	inactive: -0.016	inactive: -0.007	inactive: -0.068	inactive: -0.068
